Assay results: PubChem BioAssay AID328 (DTP/NCI, 2004)
The list does not hold the whole screen: it is rich in T/C values a quarter to a half above the control, in often repeated tests (any T/C) and in doses without a T/C. Further doses and runs are listed elsewhere. T/C: endpoint of the treated group in % of that of the vehicle group. Some entries give survivors of the animals treated and no T/C: the source holds a T/C of zero for them, seemingly a mark for toxic or unscored doses. Some doses without a T/C left all or most animals alive at the check, yet need not have been tolerated: the source hardly ever lists a survival T/C far under the control, and the zero likely stands for such cases as well. Counts of survivors are from the toxicity check (mostly the fifth day) where no day follows; animals may have died later. Schedule codes are those of the source, taken here to give the interval after Q, in days (D) or hours (H), and the number of doses after X. Some entries hold several experiments; the values are given in rising order. Where survival is the endpoint, this PubChem deposit counts one and a half times the control or more as active, and values a quarter to a half above the control carry no call in these data; other NCI protocols may use other cut-offs. Some T/C values are followed by the survivors on the day toxicity was checked, most often the fifth; without a count, all were alive then.

Test system: BDF1 mice, P388 leukemia ip, median survival T/C
Test: NCI In Vivo Anticancer Drug Screen. Data for tumor model P388 Leukemia (intraperitoneal) in B6D2F1 (BDF1) mice
Conditions: T/C endpoint: median survival time, higher T/C = longer survival
In short: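 In tumour-bearing mice, survival after compound treatment is set against the vehicle group and given as a quotient.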

[1] = dose: 50.0 mg/kg/injection, schedule: Q01DX009 (ip), vehicle: saline with Tween-80
[2] = dose: 100.0 mg/kg/injection, schedule: Q01DX009 (ip), vehicle: saline with Tween-80
[3] = dose: 200.0 mg/kg/injection, schedule: Q01DX009 (ip), vehicle: saline with Tween-80
[4] = dose: 200.0 mg/kg/injection, schedule: Q01DX001 (ip), vehicle: saline
[5] = dose: 400.0 mg/kg/injection, schedule: Q01DX001 (ip), vehicle: saline
[6] = dose: 100.0 mg/kg/injection, schedule: Q01DX009 (ip), vehicle: saline
[7] = dose: 100.0 mg/kg/injection, schedule: Q04DX003 (ip), vehicle: saline
[8] = dose: 200.0 mg/kg/injection, schedule: Q01DX009 (ip), vehicle: saline
[9] = dose: 400.0 mg/kg/injection, schedule: Q04DX003 (ip), vehicle: saline
[10] = dose: 50.0 mg/kg/injection, schedule: Q04DX003 (ip), vehicle: saline with Tween-80
[11] = dose: 12.5 mg/kg/injection, schedule: Q04DX003 (ip), vehicle: saline
[12] = dose: 8.0 mg/kg/injection, schedule: Q01DX010 (ip), vehicle: saline
[13] = dose: 225.0 mg/kg/injection, schedule: Q01DX009 (ip), vehicle: Klucel (hydroxypropylcellulose) (HPC)

In the case of `Cn1c2nc(=O)n(-c3ccccc3)c(=O)c-2nc2c1CCCC2`, the T/C [1] is reported as 129 % of control, the T/C [2] is reported as 133 % of control [5 of 6 alive] and the T/C [3] is reported as 126 % of control.

For `CC(O)(c1ccc(Br)cc1)C(c1ccccc1)c1ccccn1` (configuration not stated), the survivor count (dose: 50.0 mg/kg/injection, schedule: Q04DX003 (ip), vehicle: saline) was 6 of 6.

In the case of `CC(=O)C1=CC(=O)NC(=O)C1C(=O)CC(C)C` (configuration not stated), the survivor count (dose: 6.25 mg/kg/injection, schedule: Q01DX009 (ip), vehicle: other) is reported as 3 of 3, the survivor count (dose: 12.5 mg/kg/injection, schedule: Q01DX009 (ip), vehicle: other) is reported as 3 of 3 and the survivor count (dose: 25.0 mg/kg/injection, schedule: Q01DX009 (ip), vehicle: other) is reported as 0 of 3 and 3 of 3. The survivor count (dose: 100.0 mg/kg/injection, schedule: Q01DX009 (ip), vehicle: other) was 0 of 3, the survivor count (dose: 200.0 mg/kg/injection, schedule: Q01DX009 (ip), vehicle: other) was 0 of 3 and the survivor count (dose: 400.0 mg/kg/injection, schedule: Q01DX009 (ip), vehicle: other) was 0 of 3.

For `Nc1c(C(=O)O)[nH]c(=O)[nH]c1=O`, the survivor count [3] was 6 of 6.

With `c1ccc2c(c1)nnn1c3cnccc3nc21` the T/C (dose: 12.5 mg/kg/injection, schedule: Q01DX009 (ip), vehicle: saline with Tween-80) was 139 % of control, the survivor count (dose: 25.0 mg/kg/injection, schedule: Q01DX009 (ip), vehicle: saline with Tween-80) was 2 of 6 and the survivor count [1] was 0 of 6 and 2 of 6. For the same molecule, the survivor count [2] was 0 of 6 and the survivor count [3] was 0 of 6.

In the case of `Cc1cccc2nc(-c3ccccc3)ccc12`, the survivor count (dose: 100.0 mg/kg/injection, schedule: Q01DX001 (ip), vehicle: saline) is reported as 0 of 6, the survivor count [4] is reported as 0 of 6 and the survivor count [5] is reported as 0 of 6.

In the case of `OCC#CC#CCO`, the survivor count [4] is reported as 1 of 6 and the survivor count [5] is reported as 0 of 6.

`O=C(CBr)c1cccc(OC(=O)c2ccccc2)c1` was tested, and the survivor count (dose: 100.0 mg/kg/injection, schedule: Q04DX003 (ip), vehicle: Klucel (hydroxypropylcellulose) (HPC)) was 2 of 6.

With `COC1(OC)OC(c2ccccc2)=C(C#N)C(/C=C\c2ccccc2)C1(OC)OC` (configuration not stated) the survivor count [2] was 6 of 6.

For `O=C1c2ccccc2C(=O)N1CCC[P+](c1ccccc1)(c1ccccc1)c1ccccc1`, the T/C (dose: 3.13 mg/kg/injection, schedule: Q01DX009 (ip), vehicle: Klucel (hydroxypropylcellulose) (HPC)) was 125 and 129 % of control, the T/C (dose: 6.25 mg/kg/injection, schedule: Q01DX009 (ip), vehicle: Klucel (hydroxypropylcellulose) (HPC)) was 133 and 136 % of control and the T/C (dose: 12.5 mg/kg/injection, schedule: Q01DX009 (ip), vehicle: Klucel (hydroxypropylcellulose) (HPC)) was 138 % of control. The survivor count (dose: 25.0 mg/kg/injection, schedule: Q01DX009 (ip), vehicle: Klucel (hydroxypropylcellulose) (HPC)) was 2 of 6.

`O=P(N1CC1)(N1CC1)N1CCc2ccccc21` was tested, and the T/C [6] was 125 % of control, the T/C [7] was 143 % of control and the survivor count [8] was 6 of 6. The survivor count [9] was 6 of 6.

`CC(C)CC(=O)CC1(C)CCC(c2ccoc2)O1` (configuration not stated) was tested, and the T/C [3] was 125 % of control [4 of 6 alive].

`CCOC(=O)C(NC(C)=O)(C(=O)OCC)C(C)C(=O)c1ccc(OC)c(OC)c1OCc1ccccc1` (configuration not stated) was tested, and the survivor count [6] was 6 of 6.

`CC(C)=CCC/C(C)=C/CNc1ncnc2nc[nH]c12` was tested, and the T/C [10] was 125 % of control, the T/C (dose: 100.0 mg/kg/injection, schedule: Q04DX003 (ip), vehicle: saline with Tween-80) was 128 % of control [5 of 6 alive] and the T/C (dose: 200.0 mg/kg/injection, schedule: Q04DX003 (ip), vehicle: saline with Tween-80) was 130 % of control.

In the case of `CC1OC(O[C@H]2/C=C/C=C/C=C/C=C/C=C/C=C/C=C/[C@H](C)[C@@H](O)[C@@H](C)[C@H](C)OC(=O)C[C@H](O)C[C@H](O)CC[C@@H](O)[C@H](O)C[C@H](O)C[C@]3(O)C[C@H](O)[C@@H](C(=O)O)[C@H](C2)O3)C(O)C(N)C1O` (some centres not stated), the survivor count (dose: 80.0 mg/kg/injection, schedule: Q04DX003 (ip), vehicle: clinical formulation) is reported as 4 of 8.

`NC(Cc1ccccc1Cl)C(=O)O` (configuration not stated) was tested, and the T/C [6] was 138 % of control and the T/C [8] was 133 % of control.

In the case of `CNC(=N)c1ccc(NC(=N)c2ccc(NC(=N)c3ccc(NC(=N)c4ccc(C(=N)NC)cc4)cc3)cc2)cc1`, the T/C (dose: 9.0 mg/kg/injection, schedule: Q01DX009 (ip), vehicle: saline with Tween-80) is reported as 129 % of control, the survivor count (dose: 40.0 mg/kg/injection, schedule: Q01DX009 (ip), vehicle: saline with Tween-80) is reported as 0 of 6 and the T/C (dose: 40.0 mg/kg/injection, schedule: Q04DX003 (ip), vehicle: saline with Tween-80) is reported as 137 % of control [5 of 6 alive]. For the same molecule, the survivor count (dose: 60.0 mg/kg/injection, schedule: Q04DX003 (ip), vehicle: saline with Tween-80) was 1 of 6 and the survivor count (dose: 80.0 mg/kg/injection, schedule: Q01DX009 (ip), vehicle: saline with Tween-80) was 0 of 6.

For `NC(=O)c1ccc(N)nc1`, the T/C (dose: 8.25 mg/kg/injection, schedule: Q04DX003 (ip), vehicle: saline with Tween-80) was 130 % of control, the survivor count (dose: 8.25 mg/kg/injection, schedule: Q04DX003 (ip), vehicle: saline) was 6 of 6 and the T/C (dose: 12.5 mg/kg/injection, schedule: Q04DX003 (ip), vehicle: saline with Tween-80) was 135 % of control. For the same molecule, the T/C [11] was 128 % of control, the survivor count [11] was 6 of 6 and the survivor count (dose: 18.75 mg/kg/injection, schedule: Q04DX003 (ip), vehicle: saline) was 6 of 6.

In the case of `COc1ccc2c(c1)CCC1C2=CC(=O)/C1=C\[O-].COc1ccc2c(c1)CCC1C2=CC(=O)/C1=C\[O-].[Cu+2]` (configuration not stated), the T/C [10] is reported as 145 % of control.

`O=C(c1ccccc1)C1CCCCC1` was tested, and the T/C [7] was 126 % of control.

In the case of `CCCCOP(=O)(N1CC1CC)N1CC1CC` (configuration not stated), the T/C (dose: 300.0 mg/kg/injection, schedule: Q04DX003 (ip), vehicle: saline with Tween-80) is reported as 145 % of control.

`CCOC(=O)C1=C(C)NC(C)=C(C(=O)OCC)C1c1ccccc1` was tested, and the survivor count [2] was 6 of 6.

With `Cc1ccc2c(/C=C/c3ccc(N(C)C)cc3)ccnc2c1C` the T/C [1] was 127 % of control and the survivor count [3] was 6 of 6.

`CCOC(=O)NC(=O)CC` was tested, and the T/C (dose: 400.0 mg/kg/injection, schedule: Q01DX005 (ip), vehicle: saline) was 133 % of control and the T/C [9] was 126 % of control.

With `CCCCCCCCCCCC(c1ccccc1)[N+](C)(C)C` (configuration not stated) the T/C (dose: 4.0 mg/kg/injection, schedule: Q01DX010 (ip), vehicle: saline) was 130 % of control, the T/C [12] was 125 % of control and the survivor count [12] was 3 of 6. For the same molecule, the survivor count (dose: 16.0 mg/kg/injection, schedule: Q01DX010 (ip), vehicle: saline) was 3 of 6, the survivor count (dose: 32.0 mg/kg/injection, schedule: Q01DX010 (ip), vehicle: saline) was 0 of 6 and the survivor count (dose: 32.0 mg/kg/injection, schedule: Q04DX003 (ip), vehicle: saline) was 5 of 6.

With `CC(C)COC(=O)c1ccccc1O` the survivor count (dose: 400.0 mg/kg/injection, schedule: Q04DX003 (ip), vehicle: Klucel (hydroxypropylcellulose) (HPC)) was 5 of 6.

`CCC12C=CCN3CCC4(c5c(C(c6ccc(OC)cc6)c6c(CN(C)C)c7ccccc7n6C)cc(OC)cc5N(C)C4C(O)(C(=O)OC)C1OC(C)=O)C32` (configuration not stated) was tested, and the T/C (dose: 30.0 mg/kg/injection, schedule: Q01DX009 (ip), vehicle: saline) was 129 % of control.

With `COc1ccc(C2=CC(c3ccc4c(c3)OCO4)c3c(c4ccccc4oc3=O)O2)cc1OC` (configuration not stated) the survivor count (dose: 25.0 mg/kg/injection, schedule: Q04DX003 (ip), vehicle: water) was 6 of 6.

`Cc1ccc(/C(C#N)=C2C=C(Br)/C(=N\O)C=C/2Cl)cc1` was tested, and the survivor count (dose: 150.0 mg/kg/injection, schedule: Q01DX009 (ip), vehicle: Klucel (hydroxypropylcellulose) (HPC)) was 0 of 6, the T/C [13] was 125 % of control and the survivor count [13] was 0 of 6. For the same molecule, the survivor count (dose: 335.0 mg/kg/injection, schedule: Q01DX009 (ip), vehicle: Klucel (hydroxypropylcellulose) (HPC)) was 0 of 6 and the survivor count (dose: 400.0 mg/kg/injection, schedule: Q01DX001 (ip), vehicle: Klucel (hydroxypropylcellulose) (HPC)) was 2 of 6.
